Experimental data from PubChem BioAssay AID328 (DTP/NCI, 2004).
The list does not hold the whole screen: it is rich in T/C values a quarter to a half above the control, in often repeated tests (any T/C) and in doses without a T/C. Other doses and runs of a compound stand elsewhere. T/C is the treated group as % of the vehicle group. Some entries give survivors of the animals treated and no T/C: the source holds a T/C of zero for them, seemingly a mark for toxic or unscored doses. Some doses without a T/C left all or most animals alive at the check, yet need not have been tolerated: the source hardly ever lists a survival T/C far under the control, and the zero likely stands for such cases as well. Survivors were counted at the toxicity check, usually on the fifth day, unless a day is given; later deaths do not show. Schedule codes are those of the source, taken here to give the interval after Q, in days (D) or hours (H), and the number of doses after X. For survival time, this PubChem deposit counts one and a half times the control or more as active, and values a quarter to a half above the control carry no call in these data; other NCI protocols may use other cut-offs. Brackets with × say how often a value occurs here. Some doses were run more than once; the results are listed from low to high. Some T/C values are followed by the survivors on the day toxicity was checked, most often the fifth; without a count, all were alive then.

Test system: BDF1 mice, P388 leukemia ip, median survival T/C
Experiment: NCI In Vivo Anticancer Drug Screen. Data for tumor model P388 Leukemia (intraperitoneal) in B6D2F1 (BDF1) mice
Settings: T/C endpoint: median survival time, higher T/C = longer survival
Description: The antitumor activity of compounds was measured in mice bearing transplantable tumors. Survival or tumor size were measured and the results are expressed as the measurement made in the treated group (T) divided by the measurement made in the vehicle treated control group (C). The tumor model used in this assay is P388 Leukemia (intraperitoneal) in B6D2F1 (BDF1) mice

[1] = dose: 100.0 mg/kg/injection, schedule: Q01DX009 (ip), vehicle: saline with Tween-80
[2] = dose: 100.0 mg/kg/injection, schedule: Q04DX002 (ip), vehicle: saline with Tween-80
[3] = dose: 200.0 mg/kg/injection, schedule: Q04DX003 (ip), vehicle: saline with Tween-80
[4] = dose: 400.0 mg/kg/injection, schedule: Q04DX003 (ip), vehicle: saline with Tween-80
[5] = dose: 12.5 mg/kg/injection, schedule: Q01DX009 (ip), vehicle: saline with Tween-80
[6] = dose: 50.0 mg/kg/injection, schedule: Q01DX009 (ip), vehicle: saline with Tween-80
[7] = dose: 200.0 mg/kg/injection, schedule: Q01DX009 (ip), vehicle: saline
[8] = dose: 400.0 mg/kg/injection, schedule: Q01DX009 (ip), vehicle: saline
[9] = dose: 25.0 mg/kg/injection, schedule: Q01DX009 (ip), vehicle: saline with Tween-80
[10] = dose: 100.0 mg/kg/injection, schedule: Q04DX003 (ip), vehicle: Klucel (hydroxypropylcellulose) (HPC)
[11] = dose: 200.0 mg/kg/injection, schedule: Q04DX003 (ip), vehicle: Klucel (hydroxypropylcellulose) (HPC)
[12] = dose: 400.0 mg/kg/injection, schedule: Q04DX003 (ip), vehicle: Klucel (hydroxypropylcellulose) (HPC)
[13] = dose: 10.0 mg/kg/injection, schedule: Q04DX003 (ip), vehicle: Klucel (hydroxypropylcellulose) (HPC)

**Q.** CC[C@@]1(O)C[C@H](OC2CC(N(C)C)C(O)C(C)O2)c2c(O)c3c(c(O)c2[C@H]1OC1CC(N(C)C)C(O)C(C)O1)C(=O)c1cccc(O)c1C3=O (some centres undefined) was tested. Which T/C (dose: 0.13 mg/kg/injection, schedule: Q01DX010 (ip), vehicle: saline) did it give?
**A.** 131 % of control

**Q.** What about the survivor count (dose: 0.5 mg/kg/injection, schedule: Q01DX010 (ip), vehicle: saline) of the same molecule?
**A.** 6 of 6

**Q.** And the survivor count (dose: 1.0 mg/kg/injection, schedule: Q01DX010 (ip), vehicle: saline)?
**A.** 6 of 6

**Q.** How did the survivor count [1] turn out when CN/N=C/c1cccnc1 was run?
**A.** 6 of 6

**Q.** And the survivor count (dose: 200.0 mg/kg/injection, schedule: Q01DX009 (ip), vehicle: saline with Tween-80)?
**A.** 1 of 6

**Q.** What does the source list for CCOC1CCC(C(C)=O)C(C#N)(C#N)C1(C#N)C#N (centres undefined)?
**A.** T/C (dose: 12.5 mg/kg/injection, schedule: Q01DX001 (ip), vehicle: saline with Tween-80): 126 % of control; T/C (dose: 50.0 mg/kg/injection, schedule: Q01DX001 (ip), vehicle: saline with Tween-80): 126 % of control; survivor count (dose: 100.0 mg/kg/injection, schedule: Q01DX001 (ip), vehicle: saline with Tween-80): 0 of 6

**Q.** What does the source list for CC(=O)Nc1ccc(/C=C\c2ccnc3ccccc23)cc1?
**A.** survivor count [2]: 6 of 6; survivor count (dose: 200.0 mg/kg/injection, schedule: Q04DX002 (ip), vehicle: saline with Tween-80): 1 of 6; survivor count (dose: 400.0 mg/kg/injection, schedule: Q04DX002 (ip), vehicle: saline with Tween-80): 0 of 6

**Q.** Which results are given for O=NN(CCF)C(=O)NC1CCS(=O)(=O)CC1?
**A.** T/C (dose: 0.6 mg/kg/injection, schedule: Q04DX003 (ip), vehicle: saline): 145 % of control; survivor count (dose: 100.0 mg/kg/injection, schedule: Q04DX003 (ip), vehicle: saline with Tween-80): 0 of 6; survivor count [3]: 0 of 6; survivor count [4]: 0 of 6

**Q.** Which survivor count [5] does the source give for Cc1ccc(S(=O)(=O)NCN2C(=O)c3ccccc3C2=O)cc1 here?
**A.** 6 of 6

**Q.** And the survivor count [6]?
**A.** 6 of 6

**Q.** And the survivor count [7]?
**A.** 6 of 6

**Q.** And the survivor count [8]?
**A.** 6 of 6

**Q.** What does the source list for COc1ccc(CC(=O)NCCc2ccccc2)cc1OC?
**A.** survivor count [3]: 1 of 6; survivor count [4]: 0 of 6

**Q.** Which results are given for COc1cc(C)c(C#N)c(OC)n1?
**A.** survivor count (dose: 50.0 mg/kg/injection, schedule: Q01DX005 (ip), vehicle: saline with Tween-80): 4 of 5; survivor count (dose: 100.0 mg/kg/injection, schedule: Q01DX005 (ip), vehicle: saline with Tween-80): 2 of 5; survivor count (dose: 200.0 mg/kg/injection, schedule: Q01DX005 (ip), vehicle: saline with Tween-80): 0 of 5

**Q.** With CCOC(=O)c1ccc(NS(=O)c2ccccc2)cc1 (centres undefined) as the molecule, how does the survivor count (dose: 400.0 mg/kg/injection, schedule: Q01DX009 (ip), vehicle: saline with Tween-80) read?
**A.** 3 of 6

**Q.** Which results are given for COC1=CC(=O)c2c(O)cc(OC)c(O)c2C1=O?
**A.** T/C (dose: 1.25 mg/kg/injection, schedule: Q01DX009 (ip), vehicle: saline with Tween-80): 127 % of control; T/C (dose: 10.0 mg/kg/injection, schedule: Q01DX009 (ip), vehicle: saline with Tween-80): 129 % of control

**Q.** With CN=S(=O)(OCC#CCOS(=O)(=NC)c1ccc(C)cc1)c1ccc(C)cc1 (centres undefined) as the molecule, how does the T/C [5] read?
**A.** 128 % of control [5 of 6 alive]

**Q.** What about the T/C [9] of the same molecule?
**A.** 145 % of control

**Q.** What about the T/C [6] of the same molecule?
**A.** 137 % of control

**Q.** And the survivor count (dose: 200.0 mg/kg/injection, schedule: Q01DX009 (ip), vehicle: saline + alcohol)?
**A.** 2 of 6

**Q.** How did the survivor count (dose: 50.0 mg/kg/injection, schedule: Q04DX002 (ip), vehicle: saline with Tween-80) turn out when CCCCCCCCCCCCCC/[N+]([O-])=C/c1ccc([N+](=O)[O-])o1 was run?
**A.** 5 of 6

**Q.** What about the survivor count [2] of the same molecule?
**A.** 6 of 6

**Q.** What does the source list for O=C(NO)c1ccc(O)c(O)c1?
**A.** T/C (dose: 50.0 mg/kg/injection, schedule: Q01DX005 (ip), vehicle: water): 140 % of control; T/C (dose: 100.0 mg/kg/injection, schedule: Q01DX005 (ip), vehicle: water): 129 % of control

**Q.** Which T/C (dose: 161.0 mg/kg/injection, schedule: Q01DX009 (ip), vehicle: saline) does the source give for S=P(S)(c1ccccc1)c1ccccc1 here?
**A.** 125 and 145 % of control

**Q.** And the T/C (dose: 322.0 mg/kg/injection, schedule: Q01DX009 (ip), vehicle: saline)?
**A.** 125 % of control

**Q.** With Cc1ccc(NC(=S)NNC(=S)NNc2ccccc2)cc1C as the molecule, how does the T/C (dose: 400.0 mg/kg/injection, schedule: Q01DX009 (ip), vehicle: Klucel (hydroxypropylcellulose) (HPC)) read?
**A.** 125 % of control

**Q.** Which survivor count (dose: 5.0 mg/kg/injection, schedule: Q01DX009 (ip), vehicle: saline sonified) does the source give for CC1(C)C2CC=C(C[P+](c3ccccc3)(c3ccccc3)c3ccccc3)C1C2 (centres undefined) here?
**A.** 5 of 6

**Q.** And the survivor count (dose: 7.5 mg/kg/injection, schedule: Q01DX009 (ip), vehicle: saline sonified)?
**A.** 2 of 6

**Q.** Which results are given for CN(C)CC/C=C1\c2ccccc2Sc2ccc(C(F)(F)F)cc21?
**A.** T/C (dose: 14.0 mg/kg/injection, schedule: Q04DX003 (ip), vehicle: saline): 125 and 131 % of control; T/C (dose: 21.0 mg/kg/injection, schedule: Q04DX003 (ip), vehicle: saline): 145 % of control; T/C (dose: 43.3 mg/kg/injection, schedule: Q01DX001 (ip), vehicle: saline): 136 % of control; survivor count (dose: 45.0 mg/kg/injection, schedule: Q04DX003 (ip), vehicle: saline): 4 of 6; survivor count (dose: 65.0 mg/kg/injection, schedule: Q04DX003 (ip), vehicle: saline): 4 of 6; survivor count (dose: 97.5 mg/kg/injection, schedule: Q01DX001 (ip), vehicle: saline): 5 of 6

**Q.** What does the source list for CC(C)C1=CC2=C[C@H](O)[C@H]3C(C)(C)CCC[C@]3(C)C2=C(O)C1=O?
**A.** T/C (dose: 5.0 mg/kg/injection, schedule: Q01DX010 (ip), vehicle: other): 130 % of control; survivor count (dose: 20.0 mg/kg/injection, schedule: Q01DX010 (ip), vehicle: other): 1 of 6; survivor count (dose: 40.0 mg/kg/injection, schedule: Q01DX010 (ip), vehicle: other): 0 of 6

**Q.** Which results are given for COc1cc2cc[n+](C)c(Cc3ccccc3)c2cc1OC?
**A.** T/C [9]: 140 % of control (2×); T/C (dose: 35.0 mg/kg/injection, schedule: Q01DX009 (ip), vehicle: Klucel (hydroxypropylcellulose) (HPC)): 141 % of control; T/C [6]: 135 and 140 % of control; survivor count (dose: 75.0 mg/kg/injection, schedule: Q01DX009 (ip), vehicle: Klucel (hydroxypropylcellulose) (HPC)): 0 of 6; survivor count (dose: 75.0 mg/kg/injection, schedule: Q01DX009 (ip), vehicle: saline with Tween-80): 0 of 6; survivor count [1]: 0 of 6; survivor count [3]: 3 of 6

**Q.** Which results are given for CC(C)CCCc1c[nH]c(=O)[nH]c1=O?
**A.** survivor count [10]: 6 of 6; survivor count [11]: 6 of 6; survivor count [12]: 6 of 6

**Q.** ClCCN(CCCl)CCOc1ccc(-c2nc3ccccc3[nH]2)cc1 was tested. Which T/C (dose: 6.25 mg/kg/injection, schedule: Q04DX002 (ip), vehicle: saline) did it give?
**A.** 144 % of control

**Q.** What about the survivor count (dose: 25.0 mg/kg/injection, schedule: Q04DX002 (ip), vehicle: saline) of the same molecule?
**A.** 4 of 6

**Q.** CS(=O)(=O)OC[C@@H](O)[C@@H](O)COS(C)(=O)=O was tested. Which T/C [7] did it give?
**A.** 129 % of control

**Q.** And the T/C [8]?
**A.** 131 % of control

**Q.** CCOC(=O)CCC#N was tested. Which T/C [7] did it give?
**A.** 134 % of control

**Q.** Clc1ccc2c(c1)-c1ccccc1C1=NCCN12 was tested. Which T/C [13] did it give?
**A.** 140 % of control

**Q.** What about the survivor count [13] of the same molecule?
**A.** 6 of 6

**Q.** And the survivor count [10]?
**A.** 0 of 6

**Q.** What about the survivor count [11] of the same molecule?
**A.** 0 of 6

**Q.** What about the survivor count [12] of the same molecule?
**A.** 0 of 6

**Q.** With O=Nc1ccc(O)c2ncccc12 as the molecule, how does the T/C (dose: 100.0 mg/kg/injection, schedule: Q01DX001 (ip), vehicle: Klucel (hydroxypropylcellulose) (HPC)) read?
**A.** 125 % of control

**Q.** What about the T/C (dose: 200.0 mg/kg/injection, schedule: Q01DX001 (ip), vehicle: Klucel (hydroxypropylcellulose) (HPC)) of the same molecule?
**A.** 128 % of control

**Q.** What does the source list for Nc1nc2c(c(=O)[nH]1)NC(CCNc1ccc(C(=O)O)cc1)CN2 (centres undefined)?
**A.** survivor count [3]: 2 of 6; survivor count [4]: 0 of 6

**Q.** Which T/C [1] does the source give for CCCCOC1OCN(CCOC)CC1(C)C (centres undefined) here?
**A.** 138 % of control
